Laboratory results: PubChem BioAssay AID330 (DTP/NCI, 2004)
The list does not hold the whole screen: it is rich in T/C values a quarter to a half above the control, in often repeated tests (any T/C) and in doses without a T/C. Other doses and runs of a compound stand elsewhere. T/C gives the treated animals as a percentage of the vehicle group. Some doses have a count of surviving animals in place of a T/C: the source files T/C as zero there, which appears to mark a toxic dose or a test without result, not a measured value. Some doses without a T/C left all or most animals alive at the check, yet need not have been tolerated: the source hardly ever lists a survival T/C far under the control, and the zero likely stands for such cases as well. Survivors were counted at the toxicity check, usually on the fifth day, unless a day is given; later deaths do not show. Schedule codes are those of the source, taken here to give the interval after Q, in days (D) or hours (H), and the number of doses after X. Counts like (3×) count equal records among those shown. Some entries were tested several times; their values stand side by side, smallest first. Where survival is the endpoint, this PubChem deposit counts one and a half times the control or more as active, and values a quarter to a half above the control carry no call in these data; other NCI protocols may use other cut-offs. Some T/C values carry the count of animals alive at the toxicity check (mostly the fifth day); without a count, all were alive then.

Tested on: P388 leukemia ip, CD2F1 mice, survival T/C
Assay: NCI In Vivo Anticancer Drug Screen. Data for tumor model P388 Leukemia (intraperitoneal) in CD2F1 (CDF1) mice
Conditions: T/C endpoint: median survival time, higher T/C = longer survival
[1] = dose: 25.0 mg/kg/injection, schedule: Q01DX009 (ip), vehicle: water
[2] = dose: 50.0 mg/kg/injection, schedule: Q01DX009 (ip), vehicle: water
[3] = dose: 100.0 mg/kg/injection, schedule: Q01DX009 (ip), vehicle: saline
[4] = dose: 100.0 mg/kg/injection, schedule: Q01DX009 (ip), vehicle: water
[5] = dose: 400.0 mg/kg/injection, schedule: Q04DX003 (ip), vehicle: saline with Tween-80
[6] = dose: 50.0 mg/kg/injection, schedule: Q01DX009 (ip), vehicle: saline
[7] = dose: 200.0 mg/kg/injection, schedule: Q01DX009 (ip), vehicle: saline
[8] = dose: 240.0 mg/kg/injection, schedule: Q01DX005 (ip), vehicle: saline with Tween-80
[9] = dose: 200.0 mg/kg/injection, schedule: Q01DX005 (ip), vehicle: DMSO
[10] = dose: 50.0 mg/kg/injection, schedule: Q01DX009 (ip), vehicle: saline with Tween-80
[11] = dose: 100.0 mg/kg/injection, schedule: Q01DX009 (ip), vehicle: saline with Tween-80
[12] = dose: 120.0 mg/kg/injection, schedule: Q01DX005 (ip), vehicle: saline with Tween-80

How did the T/C (dose: 1.56 mg/kg/injection, schedule: Q01DX009 (ip), vehicle: water) turn out when `NC(=O)CCC(N)C(=O)O.[Cl-].[Cl-].[Cl-].[Cl-].[Pt+2]` (stereo not drawn) was run?
Its T/C is 129 % of control.

What about the T/C (dose: 3.13 mg/kg/injection, schedule: Q01DX009 (ip), vehicle: water, evaluated on day 30) of the same compound?
The T/C was 125 and 129 % of control.

What about the T/C (dose: 3.13 mg/kg/injection, schedule: Q01DX009 (ip), vehicle: water, evaluated on day 35) of the same compound?
Its T/C is 128 % of control.

What about the T/C (dose: 6.25 mg/kg/injection, schedule: Q01DX009 (ip), vehicle: water, evaluated on day 30) of the same compound?
The T/C was 136 % of control.

And the T/C (dose: 6.25 mg/kg/injection, schedule: Q01DX009 (ip), vehicle: water, evaluated on day 35)?
Its T/C is 133 % of control.

And the T/C (dose: 12.5 mg/kg/injection, schedule: Q01DX009 (ip), vehicle: water, evaluated on day 30)?
The T/C was 138 and 147 % of control.

What about the T/C (dose: 12.5 mg/kg/injection, schedule: Q01DX009 (ip), vehicle: water, evaluated on day 35) of the same compound?
Its T/C is 141 % of control.

What about the T/C (dose: 16.5 mg/kg/injection, schedule: Q01DX009 (ip), vehicle: saline) of the same compound?
The T/C was 129 % of control.

And the T/C (dose: 25.0 mg/kg/injection, schedule: Q01DX009 (ip), vehicle: saline)?
Its T/C is 133 and 139 % of control.

What about the T/C (dose: 25.0 mg/kg/injection, schedule: Q01DX009 (ip), vehicle: water, evaluated on day 30) of the same compound?
Its T/C is 138 and 140 % of control.

What about the T/C (dose: 25.0 mg/kg/injection, schedule: Q01DX009 (ip), vehicle: water, evaluated on day 35) of the same compound?
Its T/C is 142 % of control.

And the survivor count [1]?
The survivor count was 6 of 6.

And the T/C [2]?
Its T/C is 137 [5 of 6 alive] and 146 % of control [5 of 6 alive].

And the survivor count [2]?
Its survivor count is 0 of 6 and 1 of 6.

What about the survivor count [3] of the same compound?
The survivor count was 0 of 6.

And the survivor count [4]?
Its survivor count is 0 of 6 (3×) and 1 of 6.

What about the survivor count (dose: 200.0 mg/kg/injection, schedule: Q01DX009 (ip), vehicle: water) of the same compound?
The survivor count was 0 of 6 (2×).

Which T/C (dose: 12.5 mg/kg/injection, schedule: Q01DX009 (ip), vehicle: water) does the source give for `O=NNc1ccc2cccnc2n1` here?
The T/C was 126 and 133 % of control.

And the T/C [1]?
The T/C was 141 % of control [5 of 6 alive].

What about the survivor count [4] of the same compound?
The survivor count was 6 of 6.

With `C/C(=N/N(C)C)c1ccc(Cl)cc1` as the compound, how does the T/C (dose: 100.0 mg/kg/injection, schedule: Q01DX001 (ip), vehicle: Klucel (hydroxypropylcellulose) (HPC)) read?
Its T/C is 132 % of control.

How did the survivor count (dose: 5.0 mg/kg/injection, schedule: Q01DX009 (ip), vehicle: saline with Tween-80) turn out when `O=C1C=C(C/C=C/c2ccccc2)C(C/C=C/c2ccccc2)C=C1O` (stereo not drawn) was run?
Its survivor count is 6 of 6.

How did the survivor count [5] turn out when `CCNC(=O)C1CCN(Cc2c[nH]c3ccccc23)CC1` was run?
Its survivor count is 0 of 6.

Which survivor count (dose: 200.0 mg/kg/injection, schedule: Q01DX001 (ip), vehicle: saline with Tween-80) does the source give for `NC1CC2(CCC1=O)c1ccccc1-c1ccccc12` (stereo not drawn) here?
Its survivor count is 2 of 6.

For `COc1ccc2sc3c(C)ccc(NCCC4CCCN5CCCCC45)c3c(=O)c2c1` (stereo not drawn), which survivor count (dose: 400.0 mg/kg/injection, schedule: Q01DX001 (ip), vehicle: saline with Tween-80) is on record?
Its survivor count is 6 of 6.

`CN(C)CC[CH2][Sn]([CH3])([c]1ccccc1)[c]1ccccc1` was tested. Which survivor count [6] did it give?
The survivor count was 6 of 6.

And the survivor count [3]?
Its survivor count is 6 of 6.

What about the survivor count [7] of the same compound?
The survivor count was 1 of 6.

How did the survivor count [8] turn out when `CC(=O)[O-].O=C(N/N=C/c1ccccc1[O-])c1ccccc1.[Zn+2]` was run?
The survivor count was 4 of 6.

With `C=C1CC2(CCOc3ccccc32)OC1=O` (stereo not drawn) as the compound, how does the survivor count [5] read?
The survivor count was 0 of 6.

How did the survivor count [5] turn out when `Cc1nc2[nH]c(=O)[nH]c(=O)c2[nH]1` was run?
Its survivor count is 4 of 6.

With `Nc1ccc(S(=O)(=O)Nc2cnc3c(Cl)cccc3n2)cc1` as the compound, how does the survivor count (dose: 100.0 mg/kg/injection, schedule: Q01DX005 (ip), vehicle: DMSO) read?
The survivor count was 3 of 6.

What about the T/C [9] of the same compound?
Its T/C is 130 % of control.

And the survivor count [9]?
Its survivor count is 1 of 6.

What about the survivor count (dose: 300.0 mg/kg/injection, schedule: Q01DX005 (ip), vehicle: DMSO) of the same compound?
Its survivor count is 0 of 6.

And the survivor count (dose: 400.0 mg/kg/injection, schedule: Q01DX005 (ip), vehicle: DMSO)?
Its survivor count is 0 of 6 and 1 of 6.

What about the survivor count (dose: 800.0 mg/kg/injection, schedule: Q01DX005 (ip), vehicle: DMSO) of the same compound?
Its survivor count is 0 of 6.

And the survivor count (dose: 1200.0 mg/kg/injection, schedule: Q01DX005 (ip), vehicle: DMSO)?
The survivor count was 0 of 6.

Which results are given for `CCN(CC)CCNc1nc(NCCN(CC)CC)c2cn[nH]c2n1`?
survivor count (dose: 12.0 mg/kg/injection, schedule: Q01DX005 (ip), vehicle: saline): 4 of 5; survivor count (dose: 25.0 mg/kg/injection, schedule: Q01DX005 (ip), vehicle: saline): 0 of 5; survivor count (dose: 50.0 mg/kg/injection, schedule: Q01DX005 (ip), vehicle: saline): 0 of 5; survivor count (dose: 100.0 mg/kg/injection, schedule: Q01DX005 (ip), vehicle: saline): 0 of 5; survivor count (dose: 200.0 mg/kg/injection, schedule: Q01DX005 (ip), vehicle: saline): 0 of 5

For `O=[N+]([O-])c1ccc(C(c2ccccc2)c2ccccc2)cc1`, which survivor count [10] is on record?
Its survivor count is 6 of 6.

And the survivor count [11]?
Its survivor count is 4 of 6.

For `CCOC1(C)OC2OC(COC(c3ccccc3)(c3ccccc3)c3ccccc3)C(OC(=O)c3ccccc3)C(OC(=O)c3ccccc3)C2O1` (stereo not drawn), which survivor count (dose: 100.0 mg/kg/injection, schedule: Q01DX009 (ip), vehicle: distilled water + Tween-80) is on record?
The survivor count was 6 of 6.

What about the survivor count (dose: 200.0 mg/kg/injection, schedule: Q01DX009 (ip), vehicle: distilled water + Tween-80) of the same compound?
Its survivor count is 6 of 6.

`O=c1[nH]cc(N=Cc2cccc3c2OCO3)c(=O)[nH]1` was tested. Which survivor count (dose: 400.0 mg/kg/injection, schedule: Q01DX001 (ip), vehicle: suspension in saline) did it give?
The survivor count was 6 of 6.

For `CC1Nc2ccccc2NC1C` (stereo not drawn), which survivor count (dose: 50.0 mg/kg/injection, schedule: Q01DX009 (ip), vehicle: saline + Tween-80 + alcohol) is on record?
Its survivor count is 5 of 6.

And the survivor count (dose: 200.0 mg/kg/injection, schedule: Q01DX009 (ip), vehicle: saline + Tween-80 + alcohol)?
The survivor count was 3 of 6.

With `CCCCCCCCCC[N+]1([O-])CCCCCC1` as the compound, how does the survivor count [6] read?
The survivor count was 5 of 6.

What about the survivor count [3] of the same compound?
The survivor count was 1 of 6.

What about the survivor count [7] of the same compound?
Its survivor count is 0 of 6.

`COc1ccc(/C(=N\O)c2nccc3cc(OC)c(OC)cc23)cc1OC` was tested. Which survivor count [12] did it give?
Its survivor count is 6 of 6.

What about the survivor count [8] of the same compound?
The survivor count was 6 of 6.

For `CCC(=O)NC1=C(Cl)C(=O)C(Cl)=C(Cl)C1=O`, which survivor count (dose: 12.5 mg/kg/injection, schedule: Q01DX009 (ip), vehicle: saline with Tween-80) is on record?
The survivor count was 1 of 6.

What about the survivor count [10] of the same compound?
Its survivor count is 0 of 6.

What about the survivor count [11] of the same compound?
The survivor count was 0 of 6.

What about the survivor count (dose: 200.0 mg/kg/injection, schedule: Q01DX009 (ip), vehicle: saline with Tween-80) of the same compound?
The survivor count was 0 of 6.

For `N#CCc1nc2ccccc2s1`, which survivor count [8] is on record?
Its survivor count is 0 of 6.

With `COc1cc(C2c3c(oc4ccccc4c3=O)Oc3oc4ccccc4c(=O)c32)cc(OC)c1OC` as the compound, how does the survivor count [8] read?
Its survivor count is 6 of 6.

Which results are given for `C[PH+](C)C.C[PH+](C)C.[Au]`?
T/C (dose: 5.0 mg/kg/injection, schedule: Q01DX009 (ip), vehicle: saline): 140 % of control; T/C (dose: 10.0 mg/kg/injection, schedule: Q01DX009 (ip), vehicle: saline): 135 [5 of 6 alive] and 138 % of control; survivor count (dose: 20.0 mg/kg/injection, schedule: Q01DX009 (ip), vehicle: saline): 2 of 6 and 3 of 6

`CCOC(=O)C(NC(=O)C(Cc1ccc(N(CCCl)CCCl)cc1)NC(C)=O)C(C)C` (stereo not drawn) was tested. Which T/C (dose: 20.0 mg/kg/injection, schedule: Q04DX003 (ip), vehicle: other) did it give?
Its T/C is 128 % of control.

And the T/C (dose: 25.0 mg/kg/injection, schedule: Q04DX003 (ip), vehicle: saline with Tween-80)?
The T/C was 136 % of control.

What about the T/C (dose: 40.0 mg/kg/injection, schedule: Q04DX003 (ip), vehicle: other) of the same compound?
The T/C was 137 % of control.

What about the T/C (dose: 75.0 mg/kg/injection, schedule: Q04DX003 (ip), vehicle: other) of the same compound?
Its T/C is 136 % of control.

What about the T/C (dose: 80.0 mg/kg/injection, schedule: Q04DX003 (ip), vehicle: other) of the same compound?
The T/C was 143 % of control.

What about the survivor count [5] of the same compound?
Its survivor count is 5 of 6.

How did the survivor count (dose: 200.0 mg/kg/injection, schedule: Q01DX005 (ip), vehicle: saline with Tween-80) turn out when `C=CCNC(=O)SCC` was run?
Its survivor count is 0 of 6.

`FC(F)(F)c1nnc(-c2ccccc2)nn1` was tested. Which survivor count (dose: 400.0 mg/kg/injection, schedule: Q04DX002 (ip), vehicle: Klucel (hydroxypropylcellulose) (HPC)) did it give?
Its survivor count is 4 of 6.

`CCOC(=O)/C=C(\C)C(F)(F)F` was tested. Which T/C [12] did it give?
Its T/C is 136 % of control.
